Values of other authors as cited in US20250152616A1, “COMPOSITIONS FOR AND METHODS OF TREATING, PREVENTING, AND/OR MITIGATING PAIN” (Duke University, priority 2022, published 2025).

Conditions: Brink H L, et al. (2015); cited from earlier work

Structure (SMILES): Nc1ncnc2c1ncn2[C@@H]1O[C@H](CO)[C@@H](O)[C@H]1O [adenosine]
- half-life in the circulation: < 10 s
